{"source": "paper PMC10221132", "about": "(Pharmaceutics, 2023)", "assay": "general procedure: Fmoc solid-phase peptide synthesis; preloaded (L-Arg or D-Ala) 2-Cl-Trt resin; HBTU/HOBt; HATU for double couplings at Pro; PyBOP/HOBt/DIPEA for cyclization", "conditions": "conjugation step", "note": "Strings that start with PEPTIDE1 are HELM notation: dots part the residues, brackets hold end groups and non-standard residues.", "data": [{"substance": "PAPTPL-I-DA7R", "values": [{"measurement": "conjugation yield", "setting": "on PAPTPL-I", "value": 13, "unit": "% yield"}]}, {"substance": "PEPTIDE1{[PAPTPL-Teg-trz-C4CO].[dR].[dP].[dP].[dL].[dW].[dT].[dA]}$$$$V2.0", "values": [{"measurement": "conjugation yield", "value": 76, "unit": "% yield"}]}, {"substance": "PAPTPL-Teg-cA7R", "values": [{"measurement": "conjugation yield", "setting": "head-to-tail ring", "value": 47, "unit": "% yield"}]}]}
